Results from PubChem BioAssay AID248 (DTP/NCI, 2004).
The list is a part of this screen's results and no random one: it gathers tests that were run many times, whatever their T/C, doses with no T/C, and many T/C values between a quarter and a half above the control. Further doses and runs are listed elsewhere. T/C gives the treated animals as a percentage of the vehicle group. Some doses have a count of surviving animals in place of a T/C: the source files T/C as zero there, which appears to mark a toxic dose or a test without result, not a measured value. Some survivor counts are full or nearly so, which does not show that the dose was tolerated: survival well below the control is almost never listed, so the zero probably covers shortened survival too. Survivors were counted at the toxicity check, usually on the fifth day, unless a day is given; later deaths do not show. Schedule codes are those of the source, taken here to give the interval after Q, in days (D) or hours (H), and the number of doses after X. Some entries hold several experiments; the results are listed from low to high. Where survival is the endpoint, this PubChem deposit counts one and a half times the control or more as active, and values a quarter to a half above the control carry no call in these data; other NCI protocols may use other cut-offs. Some T/C values carry the count of animals alive at the toxicity check (mostly the fifth day); without a count, all were alive then.

Test system: L1210 leukemia ip in BDF1 mice, survival T/C
Test: NCI In Vivo Anticancer Drug Screen. Data for tumor model L1210 Leukemia (intraperitoneal) in B6D2F1 (BDF1) mice
Conditions: T/C endpoint: mean survival time, higher T/C = longer survival
[1] = dose: 25.0 mg/kg/injection, schedule: Q01DX009 (ip), vehicle: carboxymethylcellulose (CMC)
[2] = dose: 200.0 mg/kg/injection, schedule: Q01DX001 (ip), vehicle: carboxymethylcellulose (CMC)
[3] = dose: 400.0 mg/kg/injection, schedule: Q01DX001 (ip), vehicle: carboxymethylcellulose (CMC)
[4] = dose: 400.0 mg/kg/injection, schedule: Q04DX002 (ip), vehicle: saline
[5] = dose: 200.0 mg/kg/injection, schedule: Q01DX009 (ip), vehicle: Klucel (hydroxypropylcellulose) (HPC)
[6] = dose: 150.0 mg/kg/injection, schedule: Q01DX009 (ip), vehicle: Klucel (hydroxypropylcellulose) (HPC)
[7] = dose: 200.0 mg/kg/injection, schedule: Q04DX003 (ip), vehicle: Klucel (hydroxypropylcellulose) (HPC)
[8] = dose: 400.0 mg/kg/injection, schedule: Q04DX003 (ip), vehicle: Klucel (hydroxypropylcellulose) (HPC)
[9] = dose: 100.0 mg/kg/injection, schedule: Q04DX003 (ip), vehicle: saline with Tween-80
[10] = dose: 200.0 mg/kg/injection, schedule: Q04DX003 (ip), vehicle: saline with Tween-80

In the case of `COc1cc(C=Nc2ccc(-c3nc(C)sc3C)cc2)ccc1N(CCCl)CCCl`, the T/C (dose: 3.0 mg/kg/injection, schedule: Q01DX009 (ip), vehicle: carboxymethylcellulose (CMC)) is reported as 129 % of control, the T/C (dose: 4.6 mg/kg/injection, schedule: Q01DX009 (ip), vehicle: carboxymethylcellulose (CMC)) is reported as 126 % of control and the T/C (dose: 7.0 mg/kg/injection, schedule: Q01DX009 (ip), vehicle: carboxymethylcellulose (CMC)) is reported as 134 % of control [5 of 6 alive]. The T/C (dose: 7.3 mg/kg/injection, schedule: Q01DX001 (ip), vehicle: carboxymethylcellulose (CMC)) was 140 % of control, the T/C (dose: 11.0 mg/kg/injection, schedule: Q01DX001 (ip), vehicle: carboxymethylcellulose (CMC)) was 137 % of control and the T/C (dose: 11.0 mg/kg/injection, schedule: Q01DX009 (ip), vehicle: carboxymethylcellulose (CMC)) was 142 % of control. The T/C (dose: 11.1 mg/kg/injection, schedule: Q01DX009 (ip), vehicle: carboxymethylcellulose (CMC)) was 127 % of control [5 of 6 alive], the T/C (dose: 16.6 mg/kg/injection, schedule: Q01DX009 (ip), vehicle: carboxymethylcellulose (CMC)) was 142 % of control and the T/C (dose: 25.0 mg/kg/injection, schedule: Q01DX001 (ip), vehicle: carboxymethylcellulose (CMC)) was 138 % of control. The T/C [1] was 146 % of control, the survivor count [1] was 5 of 6 and the T/C (dose: 37.5 mg/kg/injection, schedule: Q01DX001 (ip), vehicle: carboxymethylcellulose (CMC)) was 142 % of control. For the same compound, the survivor count (dose: 37.5 mg/kg/injection, schedule: Q01DX009 (ip), vehicle: carboxymethylcellulose (CMC)) was 5 of 6, the survivor count (dose: 100.0 mg/kg/injection, schedule: Q01DX001 (ip), vehicle: carboxymethylcellulose (CMC)) was 1 of 4 and the survivor count [2] was 0 of 4. For the same compound, the survivor count [3] was 0 of 4.

`CC(=O)N1Cc2cccn2Cc2cc3c(cc21)OCO3` was tested, and the survivor count (dose: 50.0 mg/kg/injection, schedule: Q04DX002 (ip), vehicle: Klucel (hydroxypropylcellulose) (HPC)) was 3 of 3 and the survivor count (dose: 100.0 mg/kg/injection, schedule: Q04DX002 (ip), vehicle: Klucel (hydroxypropylcellulose) (HPC)) was 1 of 3.

`CCOC(=O)NOP(=O)(N1CC1(C)C)N1CC1(C)C` (configuration not stated) was tested, and the survivor count [4] was 0 of 3.

For `CC(C)CNC(=O)CCc1ccc(N(CCCl)CCCl)cc1`, the survivor count [5] was 3 of 6.

For `CCCCCCCCN`, the survivor count (dose: 50.0 mg/kg/injection, schedule: Q01DX009 (ip), vehicle: saline) was 2 of 6, the survivor count (dose: 100.0 mg/kg/injection, schedule: Q01DX009 (ip), vehicle: saline) was 1 of 3 and the T/C (dose: 100.0 mg/kg/injection, schedule: Q04DX002 (ip), vehicle: saline, evaluated on day 20) was 94 % of control. The T/C (dose: 100.0 mg/kg/injection, schedule: Q04DX002 (ip), vehicle: saline, evaluated on day 30) was 91 [5 of 6 alive], 96, 107 % of control, the survivor count (dose: 100.0 mg/kg/injection, schedule: Q04DX003 (ip), vehicle: saline) was 1 of 6 and the survivor count (dose: 200.0 mg/kg/injection, schedule: Q04DX002 (ip), vehicle: saline) was 0 of 3 and 1 of 6. The survivor count [4] was 0 of 3 and 0 of 6.

`Cc1cc[n+]([O-])cc1C` was tested, and the survivor count (dose: 400.0 mg/kg/injection, schedule: Q01DX009 (ip), vehicle: Klucel (hydroxypropylcellulose) (HPC)) was 2 of 3 and the survivor count (dose: 400.0 mg/kg/injection, schedule: Q04DX002 (ip), vehicle: Klucel (hydroxypropylcellulose) (HPC)) was 3 of 3.

With `CCOC(=O)C(Cc1ccc(N(CCCl)CCCl)cc1)NP1(=O)NCCCO1` (configuration not stated) the T/C (dose: 4.0 mg/kg/injection, schedule: Q01DX015 (ip), vehicle: carboxymethylcellulose (CMC)) was 134 % of control, the T/C (dose: 7.0 mg/kg/injection, schedule: Q01DX015 (ip), vehicle: carboxymethylcellulose (CMC)) was 140 % of control and the T/C (dose: 10.5 mg/kg/injection, schedule: Q01DX015 (ip), vehicle: other) was 136 % of control. The T/C (dose: 28.0 mg/kg/injection, schedule: Q01DX015 (ip), vehicle: carboxymethylcellulose (CMC)) was 127 % of control, the T/C (dose: 48.24 mg/kg/injection, schedule: Q01DX015 (ip), vehicle: carboxymethylcellulose (CMC)) was 127 % of control and the T/C (dose: 50.0 mg/kg/injection, schedule: Q01DX001 (ip), vehicle: carboxymethylcellulose (CMC)) was 128 % of control. The survivor count (dose: 80.0 mg/kg/injection, schedule: Q01DX015 (ip), vehicle: carboxymethylcellulose (CMC)) was 4 of 6, the T/C (dose: 80.4 mg/kg/injection, schedule: Q01DX015 (ip), vehicle: carboxymethylcellulose (CMC)) was 148 % of control [5 of 6 alive] and the survivor count (dose: 134.0 mg/kg/injection, schedule: Q01DX015 (ip), vehicle: carboxymethylcellulose (CMC)) was 0 of 6 and 6 of 6. The T/C (dose: 177.6 mg/kg/injection, schedule: Q01DX001 (ip), vehicle: carboxymethylcellulose (CMC)) was 137 % of control, the T/C [2] was 125 % of control and the survivor count (dose: 200.0 mg/kg/injection, schedule: Q01DX001 (ip), vehicle: other) was 3 of 4. The T/C (dose: 266.8 mg/kg/injection, schedule: Q01DX001 (ip), vehicle: carboxymethylcellulose (CMC)) was 140 % of control, the T/C [3] was 133 % of control and the survivor count (dose: 400.0 mg/kg/injection, schedule: Q01DX001 (ip), vehicle: other) was 2 of 4. For the same compound, the survivor count (dose: 600.0 mg/kg/injection, schedule: Q01DX001 (ip), vehicle: carboxymethylcellulose (CMC)) was 1 of 4.

In the case of `Cc1ccc(Cl)cc1NC(=O)Nc1cc(C(C)C)ccc1C`, the survivor count (dose: 400.0 mg/kg/injection, schedule: Q01DX009 (ip), vehicle: saline with Tween-80) is reported as 5 of 6.

`CCCCCCCCCCCCN(CCC(=O)O)S(=O)(=O)O` was tested, and the survivor count [6] was 0 of 6, the survivor count [7] was 2 of 6 and the survivor count (dose: 225.0 mg/kg/injection, schedule: Q01DX009 (ip), vehicle: Klucel (hydroxypropylcellulose) (HPC)) was 0 of 6. The survivor count (dose: 335.0 mg/kg/injection, schedule: Q01DX009 (ip), vehicle: Klucel (hydroxypropylcellulose) (HPC)) was 0 of 6 and the survivor count [8] was 2 of 6.

For `O=C(COc1ccc(Cl)c(Cl)c1)N(Cc1ccccc1)Cc1ccc[n+](Cc2cccc(Cl)c2S(=O)(=O)F)c1`, the survivor count [9] was 1 of 6 and 2 of 6, the survivor count [10] was 0 of 6 and the survivor count (dose: 400.0 mg/kg/injection, schedule: Q04DX003 (ip), vehicle: saline with Tween-80) was 0 of 6.

For `N=C(N)c1cccc(CCCCc2ccc(N)cc2)c1`, the survivor count [8] was 0 of 6.

`CC(=N\N=C(N)N)/C(C)=N/N=C(N)N` was tested, and the survivor count (dose: 300.0 mg/kg/injection, schedule: Q01DX001 (ip), vehicle: saline) was 1 of 6.

For `NC(=O)c1c(Br)n(C2OC(CO)C(O)C2O)c2ncnc(N)c12` (configuration not stated), the T/C (dose: 100.0 mg/kg/injection, schedule: Q04DX003 (ip), vehicle: Klucel (hydroxypropylcellulose) (HPC)) was 125 % of control, the T/C [9] was 129 % of control and the T/C (dose: 200.0 mg/kg/injection, schedule: Q01DX001 (ip), vehicle: saline) was 127 % of control. The T/C [7] was 134 % of control, the T/C [10] was 136 % of control and the T/C (dose: 400.0 mg/kg/injection, schedule: Q01DX001 (ip), vehicle: saline) was 141 % of control. For the same compound, the T/C [8] was 145 % of control, the T/C (dose: 600.0 mg/kg/injection, schedule: Q01DX001 (ip), vehicle: saline) was 129 % of control and the T/C (dose: 800.0 mg/kg/injection, schedule: Q04DX003 (ip), vehicle: Klucel (hydroxypropylcellulose) (HPC)) was 134 % of control.

In the case of `CC(C)(C)C1(C)CNC(=O)O1` (configuration not stated), the survivor count [5] is reported as 4 of 6, the survivor count [7] is reported as 5 of 6 and the survivor count [8] is reported as 3 of 6.

In the case of `CCOC(=O)c1ccc(N2C(N)=NC(N)=NC2(C)C)cc1`, the survivor count (dose: 200.0 mg/kg/injection, schedule: Q04DX003 (ip), vehicle: saline) is reported as 6 of 6 and the survivor count (dose: 400.0 mg/kg/injection, schedule: Q04DX003 (ip), vehicle: saline) is reported as 0 of 6.

In the case of `CCCCNc1c(C(=O)OCC)cnc2c1cnn2CC`, the survivor count [6] is reported as 3 of 6 and the survivor count (dose: 300.0 mg/kg/injection, schedule: Q01DX009 (ip), vehicle: Klucel (hydroxypropylcellulose) (HPC)) is reported as 0 of 6.
